PMC9788671
Results are given in words; binding and its absence hold for the method and conditions named. Binding seen in cells or lysates may run through a third protein. A yes stands for co-enrichment or nearness to the bait. Other partners may have been found.

Amino acid sequences for entries named in this document (tags omitted). Residues count along the entry.
UniProt Q9NZV8: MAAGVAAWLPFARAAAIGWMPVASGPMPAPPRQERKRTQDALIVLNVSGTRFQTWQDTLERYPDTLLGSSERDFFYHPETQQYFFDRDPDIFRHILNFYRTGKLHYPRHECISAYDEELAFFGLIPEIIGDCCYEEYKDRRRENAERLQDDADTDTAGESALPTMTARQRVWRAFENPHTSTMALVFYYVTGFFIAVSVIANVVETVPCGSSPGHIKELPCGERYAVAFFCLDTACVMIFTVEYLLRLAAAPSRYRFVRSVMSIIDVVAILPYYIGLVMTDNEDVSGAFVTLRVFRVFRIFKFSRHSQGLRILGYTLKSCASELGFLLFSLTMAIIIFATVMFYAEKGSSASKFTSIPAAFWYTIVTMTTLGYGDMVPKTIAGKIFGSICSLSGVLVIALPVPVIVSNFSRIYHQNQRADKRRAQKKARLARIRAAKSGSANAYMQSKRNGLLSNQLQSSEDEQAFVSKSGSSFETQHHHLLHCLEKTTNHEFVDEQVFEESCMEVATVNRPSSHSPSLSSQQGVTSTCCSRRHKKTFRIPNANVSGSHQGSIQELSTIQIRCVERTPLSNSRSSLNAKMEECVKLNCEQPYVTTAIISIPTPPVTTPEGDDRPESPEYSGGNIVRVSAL
UniProt Q07652: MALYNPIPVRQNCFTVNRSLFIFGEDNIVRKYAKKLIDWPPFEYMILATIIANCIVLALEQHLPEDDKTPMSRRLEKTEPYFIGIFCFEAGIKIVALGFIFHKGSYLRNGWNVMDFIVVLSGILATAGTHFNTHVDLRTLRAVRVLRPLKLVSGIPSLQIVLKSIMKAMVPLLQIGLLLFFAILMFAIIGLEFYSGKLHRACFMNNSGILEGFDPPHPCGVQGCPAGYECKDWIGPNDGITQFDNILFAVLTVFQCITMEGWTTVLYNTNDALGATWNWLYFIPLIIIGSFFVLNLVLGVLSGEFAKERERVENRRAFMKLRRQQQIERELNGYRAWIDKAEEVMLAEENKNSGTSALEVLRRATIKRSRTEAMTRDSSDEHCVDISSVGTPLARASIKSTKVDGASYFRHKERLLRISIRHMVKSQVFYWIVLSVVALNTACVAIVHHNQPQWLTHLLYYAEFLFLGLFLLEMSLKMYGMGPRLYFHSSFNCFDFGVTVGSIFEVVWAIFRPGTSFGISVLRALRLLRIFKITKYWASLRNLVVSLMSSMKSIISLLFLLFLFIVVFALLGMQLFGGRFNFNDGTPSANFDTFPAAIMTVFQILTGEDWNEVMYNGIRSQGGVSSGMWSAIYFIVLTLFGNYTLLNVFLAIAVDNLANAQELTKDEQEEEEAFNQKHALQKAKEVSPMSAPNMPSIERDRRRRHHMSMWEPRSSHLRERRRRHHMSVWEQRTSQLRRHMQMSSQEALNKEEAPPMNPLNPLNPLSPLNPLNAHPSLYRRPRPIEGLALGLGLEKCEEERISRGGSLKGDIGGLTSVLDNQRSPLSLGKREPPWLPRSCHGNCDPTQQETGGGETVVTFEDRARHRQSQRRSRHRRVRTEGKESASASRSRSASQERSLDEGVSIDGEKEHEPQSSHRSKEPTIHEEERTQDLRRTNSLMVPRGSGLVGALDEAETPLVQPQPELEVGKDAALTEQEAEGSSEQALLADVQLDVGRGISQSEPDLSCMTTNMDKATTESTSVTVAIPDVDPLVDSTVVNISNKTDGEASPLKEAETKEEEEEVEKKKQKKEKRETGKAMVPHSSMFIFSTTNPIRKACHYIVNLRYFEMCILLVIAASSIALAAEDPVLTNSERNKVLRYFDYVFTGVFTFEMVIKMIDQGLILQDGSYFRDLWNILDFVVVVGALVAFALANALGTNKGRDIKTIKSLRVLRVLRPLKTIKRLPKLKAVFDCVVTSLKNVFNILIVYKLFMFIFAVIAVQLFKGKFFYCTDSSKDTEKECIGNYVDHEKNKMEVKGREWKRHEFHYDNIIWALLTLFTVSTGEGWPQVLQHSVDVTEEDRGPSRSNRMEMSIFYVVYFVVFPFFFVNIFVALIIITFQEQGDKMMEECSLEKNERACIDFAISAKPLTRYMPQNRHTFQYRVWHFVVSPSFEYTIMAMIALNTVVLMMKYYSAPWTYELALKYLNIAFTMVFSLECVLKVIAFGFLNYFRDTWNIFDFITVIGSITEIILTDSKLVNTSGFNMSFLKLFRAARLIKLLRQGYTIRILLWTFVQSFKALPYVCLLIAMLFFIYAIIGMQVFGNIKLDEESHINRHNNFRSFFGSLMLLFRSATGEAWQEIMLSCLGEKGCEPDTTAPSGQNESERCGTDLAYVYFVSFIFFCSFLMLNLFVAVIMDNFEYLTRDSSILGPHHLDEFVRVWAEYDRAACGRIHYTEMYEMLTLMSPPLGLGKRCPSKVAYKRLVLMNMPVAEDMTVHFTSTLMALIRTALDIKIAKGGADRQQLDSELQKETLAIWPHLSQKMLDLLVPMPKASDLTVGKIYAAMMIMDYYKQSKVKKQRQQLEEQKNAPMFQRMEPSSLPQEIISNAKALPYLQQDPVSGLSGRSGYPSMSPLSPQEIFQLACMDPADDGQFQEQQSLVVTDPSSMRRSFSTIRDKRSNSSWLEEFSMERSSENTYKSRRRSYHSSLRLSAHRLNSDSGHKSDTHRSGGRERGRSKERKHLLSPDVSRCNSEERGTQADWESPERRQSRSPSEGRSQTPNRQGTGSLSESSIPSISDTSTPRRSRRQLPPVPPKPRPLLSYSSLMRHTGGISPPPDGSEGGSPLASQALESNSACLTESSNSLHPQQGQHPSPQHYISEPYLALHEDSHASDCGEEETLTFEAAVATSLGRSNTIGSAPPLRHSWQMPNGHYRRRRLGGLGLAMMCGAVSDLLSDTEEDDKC
UniProt Q64542: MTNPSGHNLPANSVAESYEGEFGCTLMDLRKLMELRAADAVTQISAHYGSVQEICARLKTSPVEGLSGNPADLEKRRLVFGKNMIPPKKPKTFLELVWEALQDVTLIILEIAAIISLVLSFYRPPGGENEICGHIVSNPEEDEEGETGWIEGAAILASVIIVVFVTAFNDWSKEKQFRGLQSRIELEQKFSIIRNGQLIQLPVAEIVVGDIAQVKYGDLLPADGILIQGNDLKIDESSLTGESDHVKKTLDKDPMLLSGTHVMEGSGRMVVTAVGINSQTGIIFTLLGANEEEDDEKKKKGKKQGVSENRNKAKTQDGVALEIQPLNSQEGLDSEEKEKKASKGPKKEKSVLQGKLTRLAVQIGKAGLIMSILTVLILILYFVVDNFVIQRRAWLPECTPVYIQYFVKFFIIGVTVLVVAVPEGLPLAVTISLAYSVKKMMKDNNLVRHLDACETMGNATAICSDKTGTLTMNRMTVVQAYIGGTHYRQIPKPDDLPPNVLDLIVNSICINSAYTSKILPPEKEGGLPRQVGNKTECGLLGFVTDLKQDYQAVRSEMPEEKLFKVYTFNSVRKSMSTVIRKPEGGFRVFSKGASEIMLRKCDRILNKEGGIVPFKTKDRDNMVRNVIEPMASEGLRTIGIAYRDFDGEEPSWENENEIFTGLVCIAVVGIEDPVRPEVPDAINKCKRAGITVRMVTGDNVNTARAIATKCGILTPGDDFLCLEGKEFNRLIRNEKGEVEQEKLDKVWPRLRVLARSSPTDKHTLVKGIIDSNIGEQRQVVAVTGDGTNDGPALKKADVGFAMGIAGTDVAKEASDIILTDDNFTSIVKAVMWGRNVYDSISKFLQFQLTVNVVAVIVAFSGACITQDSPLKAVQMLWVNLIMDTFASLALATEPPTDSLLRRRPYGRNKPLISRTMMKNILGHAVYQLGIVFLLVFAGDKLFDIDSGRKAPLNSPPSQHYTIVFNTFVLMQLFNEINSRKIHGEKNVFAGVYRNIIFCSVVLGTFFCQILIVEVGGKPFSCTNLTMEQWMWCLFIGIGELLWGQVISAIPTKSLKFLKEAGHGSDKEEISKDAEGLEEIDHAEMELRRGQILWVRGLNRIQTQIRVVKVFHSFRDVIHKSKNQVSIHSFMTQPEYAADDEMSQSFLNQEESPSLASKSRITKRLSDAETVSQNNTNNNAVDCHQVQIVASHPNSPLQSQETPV
UniProt Q5XIF3, residues 43-175: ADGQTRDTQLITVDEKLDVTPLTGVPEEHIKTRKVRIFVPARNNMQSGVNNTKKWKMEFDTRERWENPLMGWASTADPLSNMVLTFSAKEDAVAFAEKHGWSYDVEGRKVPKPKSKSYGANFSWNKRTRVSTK
UniProt Q9JIR4: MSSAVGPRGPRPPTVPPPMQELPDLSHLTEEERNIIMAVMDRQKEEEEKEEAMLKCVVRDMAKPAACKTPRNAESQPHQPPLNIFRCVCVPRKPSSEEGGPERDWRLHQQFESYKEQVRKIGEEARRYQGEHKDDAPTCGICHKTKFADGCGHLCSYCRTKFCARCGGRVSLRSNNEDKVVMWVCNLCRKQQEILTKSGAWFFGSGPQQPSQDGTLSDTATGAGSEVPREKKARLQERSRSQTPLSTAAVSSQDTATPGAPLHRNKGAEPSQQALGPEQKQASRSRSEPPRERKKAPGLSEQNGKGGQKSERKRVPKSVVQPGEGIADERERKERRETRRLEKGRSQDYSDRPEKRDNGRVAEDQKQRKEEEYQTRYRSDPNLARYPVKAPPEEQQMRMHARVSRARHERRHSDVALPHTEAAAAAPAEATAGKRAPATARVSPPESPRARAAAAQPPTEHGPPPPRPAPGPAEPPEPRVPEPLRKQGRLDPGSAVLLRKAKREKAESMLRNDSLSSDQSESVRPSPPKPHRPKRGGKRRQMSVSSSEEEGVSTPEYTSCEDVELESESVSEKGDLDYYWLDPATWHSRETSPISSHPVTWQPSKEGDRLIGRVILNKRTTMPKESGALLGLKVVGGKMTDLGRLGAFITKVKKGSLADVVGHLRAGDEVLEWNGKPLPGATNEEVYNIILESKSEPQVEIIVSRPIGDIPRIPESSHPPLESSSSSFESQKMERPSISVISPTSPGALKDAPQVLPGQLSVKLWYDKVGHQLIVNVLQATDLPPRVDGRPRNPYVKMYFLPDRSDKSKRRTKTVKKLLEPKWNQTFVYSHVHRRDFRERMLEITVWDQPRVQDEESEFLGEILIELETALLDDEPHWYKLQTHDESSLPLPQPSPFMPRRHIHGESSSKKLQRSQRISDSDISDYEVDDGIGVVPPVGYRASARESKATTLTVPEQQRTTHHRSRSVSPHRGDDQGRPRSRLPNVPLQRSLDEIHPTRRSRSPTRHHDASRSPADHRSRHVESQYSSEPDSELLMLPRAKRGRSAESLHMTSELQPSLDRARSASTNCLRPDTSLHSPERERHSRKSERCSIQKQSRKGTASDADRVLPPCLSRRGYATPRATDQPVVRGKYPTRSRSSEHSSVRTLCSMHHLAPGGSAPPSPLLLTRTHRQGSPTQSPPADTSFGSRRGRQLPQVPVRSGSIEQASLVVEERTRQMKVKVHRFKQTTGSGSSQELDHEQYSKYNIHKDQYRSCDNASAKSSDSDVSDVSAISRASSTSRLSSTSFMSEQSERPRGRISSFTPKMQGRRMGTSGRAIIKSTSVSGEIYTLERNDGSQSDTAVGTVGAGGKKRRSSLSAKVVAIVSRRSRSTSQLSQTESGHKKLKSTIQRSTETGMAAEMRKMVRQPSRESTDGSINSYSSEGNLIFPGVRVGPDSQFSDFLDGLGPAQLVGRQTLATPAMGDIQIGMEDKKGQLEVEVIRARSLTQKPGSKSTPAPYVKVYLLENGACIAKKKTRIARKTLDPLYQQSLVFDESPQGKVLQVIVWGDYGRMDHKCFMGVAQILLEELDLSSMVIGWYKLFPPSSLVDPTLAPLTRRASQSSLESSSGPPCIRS
UniProt P85108: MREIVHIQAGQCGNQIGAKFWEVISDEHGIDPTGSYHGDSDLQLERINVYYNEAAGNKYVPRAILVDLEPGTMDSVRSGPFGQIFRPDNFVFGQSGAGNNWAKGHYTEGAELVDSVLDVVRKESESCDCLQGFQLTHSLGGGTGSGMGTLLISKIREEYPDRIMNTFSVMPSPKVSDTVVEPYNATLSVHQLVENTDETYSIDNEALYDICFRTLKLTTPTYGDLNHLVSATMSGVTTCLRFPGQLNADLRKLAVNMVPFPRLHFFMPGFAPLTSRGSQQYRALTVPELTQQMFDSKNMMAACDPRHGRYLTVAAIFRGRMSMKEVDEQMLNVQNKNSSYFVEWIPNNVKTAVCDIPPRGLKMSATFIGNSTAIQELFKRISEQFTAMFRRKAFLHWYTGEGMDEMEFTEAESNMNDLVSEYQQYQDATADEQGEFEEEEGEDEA
UniProt P84079: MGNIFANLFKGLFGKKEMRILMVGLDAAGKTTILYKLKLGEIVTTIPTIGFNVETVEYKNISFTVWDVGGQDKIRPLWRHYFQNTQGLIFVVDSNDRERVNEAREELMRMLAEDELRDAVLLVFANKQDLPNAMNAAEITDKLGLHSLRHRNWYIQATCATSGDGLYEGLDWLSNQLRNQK

Assays:
[1] = biological target: TAP-Kv4.2 (human) (UniProt Q9NZV8); experiment: affinity purification with mass spectrometry; TAP-Kv4.2 expressed by lentivirus in rat hippocampal neurons, harvested at DIV14; strong lysis buffer (1% Triton X-100, 0.5% deoxycholate in PBS, pH 7.4); streptavidin resin, then calmodulin resin; gel cut into high and low molecular weight fragments; no MS of the control sample
[2] = biological target: TAP-Kv4.2 (human) (UniProt Q9NZV8); experiment: affinity purification with mass spectrometry; TAP-Kv4.2 expressed by lentivirus in rat hippocampal neurons, harvested at DIV14; weak lysis buffer of the kit (0.1% NP-40); streptavidin resin, then calmodulin resin; gel cut into high and low molecular weight fragments; no MS of the control sample

Row | Substance | binding [1] | binding [2]
1 | Cav2.3 (from UniProt Q07652 1-2222) | binds | binds
2 | Phb2 (from UniProt Q5XIH7 1-299) | binds | binds
3 | Unc13a (from UniProt Q62768 1-1735) | binds | binds
4 | Gprin1 (from UniProt A0A8I6AJM0 1-914) | binds | binds
5 | Camk2a (from UniProt P11275 1-478) | binds | binds
6 | Lrpprc (from UniProt Q5SGE0 78-1392) | binds | binds
7 | Map1b (from UniProt P15205 1-2461) | binds | binds
8 | Slc25a1 (from UniProt P32089 14-311) | binds | binds
9 | Tenm2 (from UniProt Q9R1K2 1-2774) | binds | binds
10 | Akap12 (from UniProt Q5QD51 1-1687) | binds | binds
11 | Fasn (from UniProt P12785 1-2505) | binds | binds
12 | Dctn1 (from UniProt P28023 1-1280) | binds | binds
13 | Ubr5 (from UniProt Q62671 1-2788) | binds | binds
14 | Hnrnpu (from UniProt Q6IMY8 1-798) | binds | binds
15 | Atp2b2 (from UniProt P11506 1-1243) | binds | binds
16 | Atp2b4 (from UniProt Q64542 1-1203) | binds | binds
17 | Nos1 (from UniProt P29476 1-1429) | binds | binds
18 | Cltc (from UniProt P11442 1-1675) | binds | binds
19 | Crebbp (from UniProt Q6JHU9 1-2442) | binds | –
20 | Smarca4 (from UniProt Q8K1P7 1-1613) | binds | –
21 | Ndufs4 (from UniProt Q5XIF3 43-175) | binds | –
22 | Myo9a (from UniProt Q9Z1N3 1-2626) | binds | –
23 | Opa1 (from UniProt Q2TA68 88-960) | binds | binds
24 | Cacna1b (from UniProt Q02294 1-2336) | binds | –
25 | Ank3 (from UniProt O70511 1-2622) | binds | binds
26 | Dync1h1 (from UniProt P38650 1-4644) | binds | binds
27 | Zfr (from UniProt Q562A2 1-1073) | binds | –
28 | Wdr7 (from UniProt Q9ERH3 1-1488) | binds | binds
29 | Rims1 (from UniProt Q9JIR4 1-1615) | binds | –

The next lines start with the values.

Row | binding [1] | binding [2] | Substance
30 | binds | binds | Ppp3ca (from UniProt P63329 1-521)
31 | binds | binds | Sptan1 (from UniProt P16086 1-2472)
32 | binds | binds | Atp2b3 (from UniProt Q64568 1-1258)
33 | binds | binds | Camk2b (from UniProt P08413 1-542)
34 | binds | binds | Kif5b (from UniProt Q2PQA9 1-963)
35 | binds | binds | Atp5a1 (from UniProt P15999 44-553)
36 | binds | binds | Hspa8 (from UniProt P63018 1-646)
37 | binds | binds | Agap2 (from UniProt Q8CGU4 1-1186)
38 | binds | binds | Kif5c (from UniProt P56536 1-955)
39 | binds | binds | Hsp90aa1 (from UniProt P82995 1-733)
40 | binds | binds | Prrc2a (from UniProt Q6MG48 1-2161)
41 | binds | binds | Tubb2a (from UniProt P85108 1-445)
42 | binds | binds | Ubr4 (from UniProt Q2TL32 1-5194)
43 | binds | binds | Arf1 (from UniProt P84079 1-181)
44 | binds | binds | Kif21b (from UniProt F1M5N7 1-1634)
45 | binds | binds | Myo5a (from UniProt Q9QYF3 1-1828)
46 | binds | binds | PlexinA3 (from UniProt D3ZPX4 20-1872)
47 | binds | binds | Ppp3cb (from UniProt P20651 1-525)
48 | binds | binds | Tubb3 (from UniProt Q4QRB4 1-450)
49 | binds | binds | Ppfia3 (from UniProt Q91Z79 1-1192)
